Measured values reported in publication PMC6746701, “A phyB-PIF1-SPA1 kinase regulatory complex promotes photomorphogenesis in Arabidopsis” (Nature Communications, 2019).

How the values were obtained:
[1] = molecular target: N-terminal half of phyB (D153-PHYB NT), BD fusion (Arabidopsis); assay: two-hybrid; light-dependent; AD and BD fusions in yeast AH109; growth on -LTH with 5 mM 3-AT and 20 µM phycocyanobilin, 30 °C, 2 days, red light or dark
[2] = molecular target: NG (phyB N terminal-GFP-GUS-NLS), previously described transgenic plants (Arabidopsis); assay: pull-down; semi-in vitro: phyB-GFP proteins immunoprecipitated from dark-grown seedlings on anti-GFP Dynabeads, whole cell extract of E. coli with MBP-SPA1 added; red or far-red light 5 min, 2 h at 4 °C; anti-MBP blot; only the target purified

B1: AD-SPA1 (light-dependent two-hybrid, AH109) (protein, UniProt Q9SYX2 1-1029)
chain: MPVMERVAEETVATNNIQLKARVDDVPCNKLDARHNDMVIQSETANSDCPGSSAHRNVDLTKPPPPEEAAGAKLSVEELTLGNYRIVQGSNNTNVDSPRAGKFEHLYRLARGSAFRAGDGDLDSQPRDMDQMLSRIRQQLAGAPSERQNLKPFMSRRSDQNLEAFSERLRAAGENSIMNAPALISEGVQMKTPVSSSNFSQLLLKRAMKGKGVVGKNQETPPEFVSDQDLGSKEKKLDISKSPTPHDVLPLKSSPKGNGMVSHGDGNHSKSSIGISLREFLRSSYAKREKRHGLCLFRQLVELVDSAHSKRLFLLDLRPSLFTLVPSKKLRYIGNFGKNDLESDVDEDLNRRRPVVEESSSGGRDSKKRKMDLHLNSPGNQLQATSTGRPFKRKSPVIDLNMVDARNPDSCELQQQDYIKNLSVSSVSRKQSMSTWLEEQWYTCPEEINGEDIGEKSNIYALGVLLFELLCHCESGEMHAAMMADLRHRILPPTFLSKYPKEAGFCLWLLHPEPSSRPSARDILKSELICEDDSVKSTAAAEEISELLLHFLSSLEVQKKKKASKLLQDIQTLEDDIKEAERRYSSNVSLVRSHGAIEKRVQSSPLDEHCTTSSALFVPTANTDRLMSNIRQLEDAYFFMRSQINLSSSAATARSDKTLKDRDRCSENQNENQDMSTKGKSSDQLEVFFEGLCKFARYSKFETCGTIRSGDLLNSASVVCSLSFDPDEEHIAAAGISKKIKIFDFNAFMNESVGVHYPLVEMVNKSKLSCVCWNSYIKNYLASTDYDGVVQIWDAGTGQGFSQYTEHQKRAWSVDFSPSDPTKFVSGSDDCSVKLWSINEKRSLGTIWSPANVCCVQFSSYSNHLLAFGSADYKVYCYDLRYVKTPWCTLAGHEKAVSYVKFMDSETIVSASTDNSLKLWNLNKTNSSGLSPGACSLTYKGHTNQKNFVGLSVLDGYIACGSETNEVYSYYKSLPMPMTSYKFGSVDPISGNEYFDDNGQFVSSVCWRKKSNMLVAANSTGNMKLLKLV
[1]
  binding: no binding

B2: MBP-SPA1 (protein, UniProt Q9SYX2 1-1029)
chain: MPVMERVAEETVATNNIQLKARVDDVPCNKLDARHNDMVIQSETANSDCPGSSAHRNVDLTKPPPPEEAAGAKLSVEELTLGNYRIVQGSNNTNVDSPRAGKFEHLYRLARGSAFRAGDGDLDSQPRDMDQMLSRIRQQLAGAPSERQNLKPFMSRRSDQNLEAFSERLRAAGENSIMNAPALISEGVQMKTPVSSSNFSQLLLKRAMKGKGVVGKNQETPPEFVSDQDLGSKEKKLDISKSPTPHDVLPLKSSPKGNGMVSHGDGNHSKSSIGISLREFLRSSYAKREKRHGLCLFRQLVELVDSAHSKRLFLLDLRPSLFTLVPSKKLRYIGNFGKNDLESDVDEDLNRRRPVVEESSSGGRDSKKRKMDLHLNSPGNQLQATSTGRPFKRKSPVIDLNMVDARNPDSCELQQQDYIKNLSVSSVSRKQSMSTWLEEQWYTCPEEINGEDIGEKSNIYALGVLLFELLCHCESGEMHAAMMADLRHRILPPTFLSKYPKEAGFCLWLLHPEPSSRPSARDILKSELICEDDSVKSTAAAEEISELLLHFLSSLEVQKKKKASKLLQDIQTLEDDIKEAERRYSSNVSLVRSHGAIEKRVQSSPLDEHCTTSSALFVPTANTDRLMSNIRQLEDAYFFMRSQINLSSSAATARSDKTLKDRDRCSENQNENQDMSTKGKSSDQLEVFFEGLCKFARYSKFETCGTIRSGDLLNSASVVCSLSFDPDEEHIAAAGISKKIKIFDFNAFMNESVGVHYPLVEMVNKSKLSCVCWNSYIKNYLASTDYDGVVQIWDAGTGQGFSQYTEHQKRAWSVDFSPSDPTKFVSGSDDCSVKLWSINEKRSLGTIWSPANVCCVQFSSYSNHLLAFGSADYKVYCYDLRYVKTPWCTLAGHEKAVSYVKFMDSETIVSASTDNSLKLWNLNKTNSSGLSPGACSLTYKGHTNQKNFVGLSVLDGYIACGSETNEVYSYYKSLPMPMTSYKFGSVDPISGNEYFDDNGQFVSSVCWRKKSNMLVAANSTGNMKLLKLV
[2]
  binding: no binding

No constants are given. Whether binding was seen depends on the method and setting. For some assays here: In cells and extracts the contact can be indirect. Tags and fused reporters may be left off the sequences shown.
